# From PubChem BioAssay AID540276 (National Center for Advancing Translational Sciences (NCATS), 2011)
# Screen size: about 300,000 compounds; about 5,400 (1.8%) were called active. Inconclusive means that the source gave no clear call. Such entries were picked first, then a sample of the others. The call rests on the fitted dose curve; tested in HEK293 cells. Potencies of inconclusive entries are doubtful fits and often do not repeat.
# Experiment: qHTS for inhibitors of binding or entry into cells for Marburg Virus
# Conditions: Marburg virus pseudotyped entry inhibition, cell reporter; activity change, negative = inhibition: at 37.8 µM (top of the series) unless noted
# On the % scale 0 is the no-effect control and ±100 the full control effect; potency means the concentration at half of the fitted maximal effect.
Structure (SMILES),"activity change, negative = inhibition",Potency
COc1cccc(Cn2c(=O)n(-c3ccc(Br)cc3F)c(=O)c3sc4ccccc4c32)c1,inactive: 11.4% [at 46.1 µM],
CCOC(=O)c1c(-c2ccc(C)cc2C)csc1NC(=O)CSc1nnnn1C,,"inconclusive: 5.17 µM [inhibitor, full curve, poor fit]"
Cc1nc(NCCc2ccc(S(N)(=O)=O)cc2)c2c(C)c(C)sc2n1,,"inconclusive: 8.91 µM [inhibitor, partial curve, poor fit]"
COc1cccc(/C=N/N2C(=O)CSC2=S)c1O,,"inconclusive: 0.316 µM [inhibitor, partial curve, poor fit]"
Cc1cc(O)c(NC(=O)c2cccc([N+](=O)[O-])c2)cc1C,inactive: 0.341% [at 46.1 µM],
CCc1ccc(NC(=O)C(=O)NCC2CCCN2S(=O)(=O)c2cccs2)cc1 (centres undefined),,"inconclusive: 25.1 µM [inhibitor, single point]"
Cc1nc2ccc([N+](=O)[O-])cc2[nH]1,inactive: 7.69% [at 46.1 µM],
Cc1ccc(Sc2nnc(Cc3ccccc3)c3ccccc23)cc1,,"inconclusive: 16.4 µM [inhibitor, partial curve, poor fit]"
O=C(Cn1nc(C(F)(F)F)c2c1CCC2)NCc1ccc(Cl)cc1,,"inconclusive: 5.01 µM [inhibitor, partial curve]"
COc1ccc(C2C=C(C34CC5CC(CC(C5)C3)C4)NC(=S)N2)cc1OC (centres undefined),,"inconclusive: 17.8 µM [inhibitor, single point]"
Cc1ccc(OCC(=O)Nc2sc3c(c2C#N)CCC3)cc1,inactive: 6.91%,
CCNc1nc(NCC)n2c(SCC(=O)Nc3ccc(C)c(C)c3)nnc2n1,inactive: -0.358% [at 46.1 µM],
O=C(CN1CCCCCC1)Nc1nc2ccccc2s1,inactive: 4.23% [at 46.1 µM],
Cc1ccc(-c2cc3ncc(C#N)c(N)n3n2)cc1,inactive: 26% [at 46.1 µM],
O=C(NCC1CCCO1)C1CCN(C2CCN(C(=O)CC3CCCC3)CC2)CC1 (centres undefined),inactive: -11.9% [at 46.1 µM],
Cc1cc(C)cc(NC(=O)CSc2nc(=O)n3cc(C)ccc3n2)c1,inactive: -5.4% [at 46.1 µM],
COc1ccc(-c2noc(N3CCC(C(=O)Nc4ccc(C)c(F)c4)CC3)n2)cc1OC,,"inconclusive: 2.51 µM [inhibitor, single point]"
O=C(NC1=NCCS1)c1ccccc1Cl,,"inconclusive: 35.5 µM [activator, single point]"
Cc1ccc(C(=O)OCC(=O)N2CCOCC2)cc1,inactive: 7.8% [at 46.1 µM],
O=c1c2c(nc3c(-c4ccc(Cl)cc4)c[nH]n13)CCCC2,,"inconclusive: 8.91 µM [inhibitor, partial curve]"
O=c1n(Cc2ccccc2)c2cc(Cl)cnc2n1Cc1ccccc1,,"inconclusive: 15.8 µM [inhibitor, single point]"
COc1ccc(-n2c(SCC(N)=O)nnc2-c2ccc(NS(=O)(=O)c3ccc(C)cc3)cc2)cc1,inactive: 0.215%,
COc1ccc(Cl)cc1NC(=O)CCCn1c(C)c2cnn(-c3ccccc3)c(=O)c2c1C,inactive: -25.1% [at 46.1 µM],

# Of the compounds above, 2 contain a cyano group:
Structure (SMILES),"activity change, negative = inhibition",Potency
Cc1ccc(OCC(=O)Nc2sc3c(c2C#N)CCC3)cc1,inactive: 6.91%,
Cc1ccc(-c2cc3ncc(C#N)c(N)n3n2)cc1,inactive: 26% [at 46.1 µM],

# Further records follow.

Structure (SMILES),"activity change, negative = inhibition",Potency
CC(C)CCNC1=CC(=O)CC(c2ccccc2)C1 (centres undefined),,"inconclusive: 11.6 µM [inhibitor, partial curve, poor fit]"
CCOC(=O)C(C)Sc1nc(-c2ccccn2)ncc1OC (centres undefined),,"inconclusive: 15.8 µM [inhibitor, single point]"
CCn1c(SCC(=O)NC2=NCCS2)nnc1C(C)NC(=O)c1ccc(Cl)cc1 (centres undefined),,"inconclusive: 35.5 µM [inhibitor, single point]"
COc1ccc(C(=O)/C=C/C(=O)N(Cc2ccccc2)C(C(=O)NC2CCCCC2)c2ccncc2)c(O)c1 (centres undefined),,"inconclusive: 25.1 µM [inhibitor, single point]"
NC(=O)c1cccnc1Oc1ccc(Cl)cc1Cl,,"inconclusive: 35.5 µM [activator, single point]"
CCCCOC(=O)c1ccc(NC(=O)c2csnn2)cc1,,"inconclusive: 22.4 µM [activator, single point]"
Cc1cc(NC(=O)c2cc3n(n2)C(C(F)(F)F)CC(c2ccco2)N3)n(-c2ccccc2)n1 (centres undefined),,"inconclusive: 12.6 µM [inhibitor, partial curve, poor fit]"
CC(C)OC(=O)CC(=O)CSc1nc(-c2ccc(F)cc2)cc(-c2ccccc2)c1C#N,,"inconclusive: 11.2 µM [inhibitor, single point]"
O=C(c1cc2c(s1)CCCCC2)N1CCN(c2ncccn2)CC1,inactive: -16.5%,
COc1ccc(C(=O)CSc2nnc(CNC(=O)c3ccco3)n2C)cc1,,"inconclusive: 3.55 µM [inhibitor, single point]"
CC(C)(C)c1ccc(C(=O)Nc2cccc3c(=O)[nH][nH]c(=O)c23)cc1,,"inconclusive: 10 µM [inhibitor, partial curve, poor fit]"
O=C(O)C1=CCNCC1,,"inconclusive: 23.1 µM [activator, single point]"
Cc1ccc(C2CC(C(F)(F)F)n3ncc(C(=O)NCc4ccco4)c3N2)cc1 (centres undefined),,"inconclusive: 0.0651 µM [inhibitor, partial curve, poor fit]"
COC(=O)c1ccc(N2CCCCC2)c(NC(=O)c2ccco2)c1,,"inconclusive: 3.55 µM [inhibitor, single point]"
CC(C)(C)C(=O)Nc1cccc(-c2nc3ccccc3c(=O)o2)c1,inactive: -11.9%,
COCCNC(=O)Cn1cc(C=C2C(=O)NC(=O)NC2=O)c2ccccc21,,"inconclusive: 31.6 µM [activator, single point]"
CCC1CCC(N2CCN(c3ccc([N+](=O)[O-])cc3)CC2)CC1 (centres undefined),,"inconclusive: 20 µM [inhibitor, single point]"
Cc1cc(C)nc(N/N=C/c2ccc(N3CCOCC3)cc2)n1,inactive: -18.8%,
CC(C)C1Oc2cc3oc(=O)ccc3cc2C1=O (centres undefined),,"inconclusive: 12.6 µM [activator, single point]"
CC(C)(C)OC(=O)NCCCC1=CC2=CC(=O)C(C)(O)C(=O)C2=CO1 (centres undefined),,"inconclusive: 1.33 µM [activator, single point]"
COc1cc(C=Nc2ccccc2C(=O)Nc2ccccc2)cc(OC)c1OC,inactive: 4.43%,
COc1ccc(S(=O)(=O)N(C)C)cc1NCC(=O)Nc1ccc(Br)c(C)c1,,"inconclusive: 31.6 µM [inhibitor, partial curve, poor fit]"
COc1ccc(C(=O)NCc2nnc(SCC(=O)c3ccccc3)o2)cc1,,"inconclusive: 5.62 µM [inhibitor, full curve, poor fit]"

Structure (SMILES),"activity change, negative = inhibition",Potency
CC(=O)c1ccc(NC(=O)CCc2nnc3ccc(N4CCC5(CC4)OCCO5)nn23)cc1,,"inconclusive: 0.562 µM [activator, full curve, poor fit]"
Cc1cc(OCC(=O)N(C)c2ccccc2)cc2c1C(=O)CC(C)(C)O2,inactive: -20.3% [at 46.1 µM],
Cc1ccc(-c2nnn(CC(=O)Nc3cccc4c3CCCC4)n2)o1,,"inconclusive: 8.91 µM [inhibitor, partial curve, poor fit]"
COc1cc(/C=C(\C#N)C(=O)NC(C)C)ccc1OCc1ccc(C(=O)O)cc1,inactive: 4.14% [at 46.1 µM],
COc1ccc(C(=O)Nc2ccc(F)cc2F)cc1,,"inconclusive: 23.1 µM [inhibitor, single point]"
CC1CCCCN1S(=O)(=O)c1ccc(C(=O)Nc2nnc(-c3ccccc3Cl)o2)cc1 (centres undefined),,active: 12.6 µM
O=C(c1ccc2c(c1)N(Cc1ccc(Cl)cc1)C(=O)c1ccccc1S2=O)N1CCC(Cc2ccccc2)CC1 (centres undefined),,"inconclusive: 11.2 µM [inhibitor, partial curve, poor fit]"
CCCn1cc(NC(=O)c2cc(-c3ccccc3)on2)cn1,,"inconclusive: 7.3 µM [inhibitor, single point]"
O=C(NCCCc1nc2ccccc2n1Cc1cccc(Cl)c1)C1CCCCC1,,"inconclusive: 4.47 µM [inhibitor, full curve, poor fit]"
CC1=CC(C)(C)[N+](C)=CN1c1ccccc1,inactive: 7.38%,
CCOc1ccc(S(=O)(=O)N2CN3CCN(C3)C2)cc1,inactive: 10.4%,
CCN(CC)CCn1c2c(c(SCC(=O)Nc3cc(C)cc(C)c3)nc1=O)CCC2,,"inconclusive: 6.31 µM [inhibitor, single point]"
CC(C)OP(=O)(OC(C)C)C(Nc1ccccc1)c1ccc2c(c1)OCO2 (centres undefined),,"inconclusive: 3.55 µM [inhibitor, partial curve, poor fit]"
COc1ccc(-c2c(-c3ccc(OCC(=O)NN)cc3O)n[nH]c2C(F)(F)F)cc1,,"inconclusive: 29.1 µM [inhibitor, single point]"
CCOC(=O)/C(=N\Nc1ccc(C(C)=O)cc1)c1csc(Nc2ccccc2)n1,,"inconclusive: 3.55 µM [inhibitor, full curve, poor fit]"
Cc1cc(C(=O)Nc2ccc(N3CCCCC3)cc2)no1,,"inconclusive: 15.8 µM [inhibitor, single point]"
Cc1ccc(-n2nnnc2SCC(=O)N2c3ccccc3NC(=O)C2(C)C)cc1,,"inconclusive: 7.3 µM [inhibitor, partial curve, poor fit]"
Cc1cccc(N2CCN(C(=O)CNC(=O)c3ccccc3)CC2)c1C,inactive: -19.3% [at 46.1 µM],
C[N+]1(C)CCC(=C2c3ccccc3CC(=O)c3sccc32)CC1,,inactive
O=Cc1c(-c2ccc(Cl)cc2)oc2ccc(O)cc12,,"inconclusive: 22.4 µM [activator, partial curve]"
COc1cc(OC)c(C(=O)Nc2ccc(C(=O)c3ccccc3)cc2)cc1OC,,"inconclusive: 2.51 µM [activator, full curve, poor fit]"
Cc1cccc(C)c1NC(=S)N(CCN1CCCCCC1)Cc1ccco1,,"inconclusive: 22.4 µM [inhibitor, single point]"
C/C(=C\C=C\c1ccccc1)C(=O)c1c(C)cc(C)[nH]c1=O,inactive: -11%,

# Four entries out of the list, sorted by SMILES length, smallest number first:
Structure (SMILES),"activity change, negative = inhibition",Potency
Cc1ccc(-c2nnn(CC(=O)Nc3cccc4c3CCCC4)n2)o1,,"inconclusive: 8.91 µM [inhibitor, partial curve, poor fit]"
C[N+]1(C)CCC(=C2c3ccccc3CC(=O)c3sccc32)CC1,,inactive
C/C(=C\C=C\c1ccccc1)C(=O)c1c(C)cc(C)[nH]c1=O,inactive: -11%,
CC(=O)c1ccc(NC(=O)CCc2nnc3ccc(N4CCC5(CC4)OCCO5)nn23)cc1,,"inconclusive: 0.562 µM [activator, full curve, poor fit]"
